Assay results: US20250367314 (published 2025)

Test: general procedure: solution-phase peptide synthesis; DCC; HATU
Conditions: for step yield: late stage modification step

Substance | step yield [% yield] | conjugation yield (conjugation step) [% yield]
(S)-4-(2-(2-(2-(2-aminoacetamido)acetamido)-3-phenylpropanamido)acetamido)benzyl(2-(3-fluorophenyl)-6-methoxy-4-oxo-1,4-dihydroquinolin-5-yl)ethane-1,2-diylbis(methylcarbamate) | 77 | 
(9H-fluoren-9-yl)methyl(S)-(2-((2-((1-((2-((4-(hydroxymethyl)phenyl)amino)-2-oxoethyl)amino)-1-oxo-3-phenylpropan-2-yl)amino)-2-oxoethyl)amino)-2-oxoethyl)carbamate | 58 | 
(9H-fluoren-9-yl)methyl(S)-(2-((2-((1-((2-((4-((((4-nitrophenoxy)carbonyl)oxy)methyl)phenyl)amino)-2-oxoethyl)amino)-1-oxo-3-phenylpropan-2-yl)amino)-2-oxoethyl)amino)-2-oxoethyl)carbamate | 61 | 
(S)-4-(11-benzyl-1-(9H-fluoren-9-yl)-3,6,9,12-tetraoxo-2-oxa-4,7,10,13-tetraazapentadecan-15-amido)benzyl(2-(3-fluorophenyl)-6-methoxy-4-oxo-1,4-dihydroquinolin-5-yl)ethane-1,2-diylbis(methylcarbamate) |  | 36
(S)-2-(2-(2-aminoacetamido)acetamido)-N-(2-((4-(hydroxymethyl)phenyl)amino)-2-oxoethyl)-3-phenylpropanamide | 95 | 
